# From the supplement of paper PMC8728848
# The list shows a part of the results.
# B1: PX15642A-pgi-501-20-501 (Parabacteroides gingivalis) (protein)
# chain: CELDRDPEGKDFQQPYTSFVQTKQNRDGLYALLRNTENPRMHFYQELQSDMYCTTITDGNSLAPFVNWDLGILNDHGRADEDEVSGIAGYYFVYNRLNQQANAFVNNTEAALQNQVYKNSTEIANAKSFLAEGKVLQALAIWRLMDRFSFHESVTEVNSGAKDLGVILLKEYNPGYIGPRATKAQCYDYILSRLSEAIEVLPENRESVLYVSRDYAYALRARIYLALGEYGKAAADAKMVVDKYPLIGAADASEFENIYRSDANNPEIIFRGFASATLGSFTATTLNGAAPAGKDIKYNPSAVPFQWVVDLYENEDFRKSVYIAKVVKKDKGYLVNKFLEDKAYRDVQDKPNLKVGARYFSVAEVYLILVESALQTGDTPTAEKYLKALSKARGAEVSVVNMEALQAERTRELIGEGSRLRDMVRWSIPNNHDAFETQPGLEGFANTTPLKAQAPVGFYAYTWEFPQRDRQTNPQLIKNWPI
# Columns and labels:
# Experiment in all cases: glycan array binding signal (z-score within array); higher = stronger binding
# Conditions in all cases: glycan notation: IUPAC condensed, linker removed
# [1] = molecular target: Neu5Ac(a2-3)Gal(b1-4)GlcNAc(b1-2)[Neu5Ac(a2-3)Gal(b1-4)GlcNAc(b1-4)]Man(a1-3)[GlcNAc(b1-4)][Neu5Ac(a2-3)Gal(b1-4)GlcNAc(b1-4)Man(a1-6)]Man(b1-4)GlcNAc(b1-4)GlcNAc
# Outline: (§1)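 The Consortium for Functional Glycomics database supplied 3228 glycan arrays, of which those lacking an available protein sequence were dropped. The binding signal, a within-array Z-score, was averaged across arrays of the same protein sequence and across linkers. Negative scores can be read as non-binding.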
# [2] = molecular target: Neu5Ac(a2-3)Gal(b1-4)GlcNAc(b1-2)[Neu5Ac(a2-3)Gal(b1-4)GlcNAc(b1-6)]Man(a1-6)[Neu5Ac(a2-3)Gal(b1-4)GlcNAc(b1-2)Man(a1-3)]Man(b1-4)GlcNAc(b1-4)GlcNAc
# Outline: as §1
# [3] = molecular target: Neu5Ac(a2-3)Gal(b1-4)GlcNAc(b1-2)[Neu5Ac(a2-3)Gal(b1-4)GlcNAc(b1-6)]Man(a1-6)[Neu5Ac(a2-3)Gal(b1-4)GlcNAc(b1-2)Man(a1-3)][GlcNAc(b1-4)]Man(b1-4)GlcNAc(b1-4)GlcNAc
# Outline: as §1
# [4] = molecular target: Neu5Ac(a2-3)Gal(b1-4)GlcNAc(b1-3)Gal
# Outline: as §1
# [5] = molecular target: Neu5Ac(a2-3)Gal(b1-4)GlcNAc(b1-3)Gal(b1-3)GlcNAc
# Outline: as §1
# [6] = molecular target: Neu5Ac(a2-3)Gal(b1-4)GlcNAc(b1-3)Gal(b1-4)GlcNAc
# Outline: as §1
# [7] = molecular target: Neu5Ac(a2-3)Gal(b1-4)GlcNAc(b1-3)Gal(b1-4)GlcNAc(b1-2)Man(a1-3)[Neu5Ac(a2-3)Gal(b1-4)GlcNAc(b1-3)Gal(b1-4)GlcNAc(b1-2)Man(a1-6)]Man(b1-4)GlcNAc(b1-4)GlcNAc
# Outline: as §1
# [8] = molecular target: Neu5Ac(a2-3)Gal(b1-4)GlcNAc(b1-3)Gal(b1-4)GlcNAc(b1-3)Gal(b1-4)GlcNAc
# Outline: as §1
# [9] = molecular target: Neu5Ac(a2-3)Gal(b1-4)GlcNAc(b1-3)Gal(b1-4)GlcNAc(b1-3)Gal(b1-4)GlcNAc(b1-2)Man(a1-3)[Neu5Ac(a2-3)Gal(b1-4)GlcNAc(b1-3)Gal(b1-4)GlcNAc(b1-3)Gal(b1-4)GlcNAc(b1-2)Man(a1-6)]GalNAc
# Outline: as §1
# [10] = molecular target: Neu5Ac(a2-3)Gal(b1-4)GlcNAc(b1-3)Gal(b1-4)GlcNAc(b1-3)GalNAc
# Outline: as §1
# [11] = molecular target: Neu5Ac(a2-3)Gal(b1-4)GlcNAc(b1-3)Gal(b1-4)GlcNAc(b1-3)[Neu5Ac(a2-3)Gal(b1-4)GlcNAc(b1-3)Gal(b1-4)GlcNAc(b1-6)]GalNAc
# Outline: as §1
# [12] = molecular target: Neu5Ac(a2-3)Gal(b1-4)GlcNAc(b1-3)Gal(b1-4)GlcNAc(b1-6)[Gal(b1-3)]GalNAc
# Outline: as §1
# [13] = molecular target: Neu5Ac(a2-3)Gal(b1-4)GlcNAc(b1-3)Gal(b1-4)[Fuc(a1-3)]GlcNAc
# Outline: as §1
# [14] = molecular target: Neu5Ac(a2-3)Gal(b1-4)GlcNAc(b1-3)GalNAc
# Outline: as §1
# [15] = molecular target: Neu5Ac(a2-3)Gal(b1-4)GlcNAc(b1-3)[Neu5Ac(a2-3)Gal(b1-4)GlcNAc(b1-6)]GalNAc
# Outline: as §1
# [16] = molecular target: Neu5Ac(a2-3)Gal(b1-4)GlcNAc(b1-6)GalNAc
# Outline: as §1
# [17] = molecular target: Neu5Ac(a2-3)Gal(b1-4)GlcNAc(b1-6)[Gal(b1-3)]GalNAc
# Outline: as §1
# [18] = molecular target: Neu5Ac(a2-3)Gal(b1-4)GlcNAc(b1-6)[Neu5Ac(a2-3)Gal(b1-3)]GalNAc
# Outline: as §1
# [19] = molecular target: Neu5Ac(a2-3)Gal(b1-4)GlcNAc6S
# Outline: as §1
# [20] = molecular target: Neu5Ac(a2-3)Gal(b1-4)[Fuc(a1-3)]GlcNAc
# Outline: as §1
# [21] = molecular target: Neu5Ac(a2-3)Gal(b1-4)[Fuc(a1-3)]GlcNAc(b1-2)Man
# Outline: as §1
# [22] = molecular target: Neu5Ac(a2-3)Gal(b1-4)[Fuc(a1-3)]GlcNAc(b1-3)Gal
# Outline: as §1
# [23] = molecular target: Neu5Ac(a2-3)Gal(b1-4)[Fuc(a1-3)]GlcNAc(b1-3)Gal(b1-4)GlcNAc
# Outline: as §1
# [24] = molecular target: Neu5Ac(a2-3)Gal(b1-4)[Fuc(a1-3)]GlcNAc(b1-3)Gal(b1-4)[Fuc(a1-3)]GlcNAc(b1-3)Gal(b1-4)[Fuc(a1-3)]GlcNAc
# Outline: as §1
# [25] = molecular target: Neu5Ac(a2-3)Gal(b1-4)[Fuc(a1-3)]GlcNAc(b1-3)GalNAc
# Outline: as §1
# [26] = molecular target: Neu5Ac(a2-3)Gal(b1-4)[Fuc(a1-3)]GlcNAc(b1-6)[Gal(b1-3)]GalNAc
# Outline: as §1
# [27] = molecular target: Neu5Ac(a2-3)Gal(b1-4)[Fuc(a1-3)]GlcNAc(b1-6)[Neu5Ac(a2-3)Gal(b1-3)]GalNAc
# Outline: as §1
# [28] = molecular target: Neu5Ac(a2-3)Gal(b1-4)[Fuc(a1-3)]GlcNAc6S
# Outline: as §1
# [29] = molecular target: Neu5Ac(a2-3)Gal6S(b1-4)GlcNAc
# Outline: as §1
# [30] = molecular target: Neu5Ac(a2-3)Gal6S(b1-4)[Fuc(a1-3)]GlcNAc
# Outline: as §1
# Neu5Ac(a2-3)GalNAc = molecular target: Neu5Ac(a2-3)GalNAc
# Outline: as §1
# [31] = molecular target: Neu5Ac(a2-3)GalNAc(b1-4)GlcNAc
# Outline: as §1
# [32] = molecular target: Neu5Ac(a2-3)[GalNAc(b1-4)]Gal(b1-4)Glc
# Outline: as §1
# [33] = molecular target: Neu5Ac(a2-3)[GalNAc(b1-4)]Gal(b1-4)GlcNAc
# Outline: as §1
# [34] = molecular target: Neu5Ac(a2-3)[GalNAc(b1-4)]Gal(b1-4)GlcNAc(b1-3)GalNAc
# Outline: as §1
# [35] = molecular target: Neu5Ac(a2-3)[Neu5Ac(a2-6)]GalNAc
# Outline: as §1
# Neu5Ac(a2-6)Gal = molecular target: Neu5Ac(a2-6)Gal
# Outline: as §1
binder,measurement,setting,value
B1,glycan array binding signal (z-score),[1],-0.122
same,glycan array binding signal (z-score),[2],0.719
same,glycan array binding signal (z-score),[3],1.44
same,glycan array binding signal (z-score),[4],-0.256
same,glycan array binding signal (z-score),[5],-0.726
same,glycan array binding signal (z-score),[6],0.055
same,glycan array binding signal (z-score),[7],0.992
same,glycan array binding signal (z-score),[8],-0.218
same,glycan array binding signal (z-score),[9],0.742
same,glycan array binding signal (z-score),[10],-0.213
same,glycan array binding signal (z-score),[11],0.885
same,glycan array binding signal (z-score),[12],-0.549
same,glycan array binding signal (z-score),[13],-0.866
same,glycan array binding signal (z-score),[14],0.696
same,glycan array binding signal (z-score),[15],-0.28
same,glycan array binding signal (z-score),[16],-0.346
same,glycan array binding signal (z-score),[17],-1.07
same,glycan array binding signal (z-score),[18],-0.321
same,glycan array binding signal (z-score),[19],-0.486
same,glycan array binding signal (z-score),[20],-0.738
same,glycan array binding signal (z-score),[21],-0.096
same,glycan array binding signal (z-score),[22],0.506
same,glycan array binding signal (z-score),[23],0.535
same,glycan array binding signal (z-score),[24],0.189
same,glycan array binding signal (z-score),[25],3.38
same,glycan array binding signal (z-score),[26],-0.274
same,glycan array binding signal (z-score),[27],-0.034
same,glycan array binding signal (z-score),[28],-1.13
same,glycan array binding signal (z-score),[29],-0.175
same,glycan array binding signal (z-score),[30],-1.24
same,glycan array binding signal (z-score),Neu5Ac(a2-3)GalNAc,-0.441
same,glycan array binding signal (z-score),[31],-0.624
same,glycan array binding signal (z-score),[32],-0.51
same,glycan array binding signal (z-score),[33],-0.639
same,glycan array binding signal (z-score),[34],-1.14
same,glycan array binding signal (z-score),[35],0.508
same,glycan array binding signal (z-score),Neu5Ac(a2-6)Gal,-0.372

# A second format for some results above.
binder	measurement	setting	value
B1	glycan array binding signal (z-score)	[2]	0.719
same	glycan array binding signal (z-score)	[11]	0.885
same	glycan array binding signal (z-score)	[29]	-0.175
